Data from PubChem BioAssay AID540256 (National Center for Advancing Translational Sciences (NCATS), 2011).
The campaign covered roughly 300,000 compounds. About 3,700 (1.2%) were called active. The shares of active, inactive and inconclusive entries below differ from those in the screen. Calls follow the shape of the full dose curve; tested in HEK293 cells. Potencies beside an inconclusive call are fits to weak or partial responses and may not hold up.

test: qHTS for Inhibitors of binding or entry into cells for Lassa Virus; settings: Lassa virus pseudotype entry inhibition, cell reporter; activity change, negative = inhibition: at 37.9 µM (top of the series) unless noted; also: nearly all actives have a fitted effect of over 50% in size
% is scaled to controls: 0 for no effect and ±100 for the full control effect; potency is read from the fitted curve at half-maximal effect.

| SMILES | Potency | activity change, negative = inhibition |
| --- | --- | --- |
| S=c1[nH]nc(-c2ccc(Br)cc2)n1-c1ccc2c(c1)OCCO2 | inconclusive: 2.82 µM [inhibitor, single point] | – |
| O=S(=O)(NCc1ccc2c(c1)OCO2)c1cccc2cccnc12 | inconclusive: 35.5 µM [activator, single point] | – |
| O=C(Nc1nccs1)c1cccc(N2C(=O)C3C4C=CC(C4)C3C2=O)c1 (centres undefined) | – | inactive: 10.7% |
| Cc1ccccc1NS(=O)(=O)c1ccc(C(=O)NCC(C)(C)N2CCOCC2)cc1 | – | inactive: -15% [at 46.1 µM] |
| CCOC(=O)N1CCN(C(=O)c2ccc(OC)cc2)CC1 | – | inactive: 1.44% |
| Cc1ccc(S(=O)(=O)NCCc2ccncc2)cc1 | inconclusive: 32.6 µM [inhibitor, partial curve, poor fit] | – |
| C=CCc1cc(/C=C2/NC(=O)NC2=O)cc(OCC)c1O | inconclusive: 3.55 µM [activator, full curve] | – |
| COc1ccc(Cl)cc1NC(=O)C/C(C)=N/NC(=O)c1ccc(O)cc1 | inconclusive: 1.78 µM [inhibitor, partial curve, poor fit] | – |
| Cc1nn(C)cc1CN(C)C(=O)c1nn2c(c1Cl)NC(c1cccs1)CC2C(F)(F)F (centres undefined) | – | inactive: 3.36% |
| CC(C)(C)n1cc(C(=O)c2ccc3ccccc3c2O)cn1 | active: 12.6 µM | – |
| CCOc1ccc(CC(=O)NCCc2csc3nc(-c4ccccc4F)nn23)cc1 | inconclusive: 35.5 µM [inhibitor, single point] | – |
| CCOc1ccc2nc(C(=O)N3CCCC(C)C3)sc2c1 (centres undefined) | inconclusive: 35.5 µM [inhibitor, single point] | – |
| O=P(NC1CCCCC1)(Oc1ccccc1)Oc1ccccc1 | inconclusive: 2.82 µM [activator, partial curve, poor fit] | – |
| CN1CCCC(OC(=O)c2ccc(C(C)(C)C)cc2)C1 (centres undefined) | – | inactive: 3.57% |
| COC(=O)c1sccc1S(=O)(=O)N1CCN(c2cccc(C)c2C)CC1 | inconclusive: 35.5 µM [inhibitor, single point] | – |
| COc1ccc(-c2cc(C(=O)N3CCN(c4ccccc4OC)CC3)c3cc(C(C)C)ccc3n2)cc1 | inconclusive: 2.24 µM [inhibitor, full curve] | – |
| CCOC(=O)Cn1c(=O)oc2cc(S(=O)(=O)NCc3ccc(F)cc3)ccc21 | – | inactive: 4.34% [at 46.1 µM] |
| COc1cc(C(=O)NCCOc2cc(C)ccc2C(C)C)cc(OC)c1OC | active: 2.82 µM | – |
| COc1ccc(NC(=O)COC(=O)c2ccc3c(c2)OCO3)c(OC)c1 | inconclusive: 1.26 µM [activator, partial curve, poor fit] | – |
| COc1ccc(C2CC(c3ccc4ccccc4c3OC(C)=O)=NN2C(C)=O)cc1 (centres undefined) | inconclusive: 35.5 µM [inhibitor, single point] | – |
| COc1cc(OC)cc(C(=O)Nn2cc(C(=O)Nc3ccccc3F)c3ccccc3c2=O)c1 | – | inactive: -4.28% |
| O=C(CN1C(=O)NC2(CCCC2)C1=O)Nc1nc(-c2ccc(F)cc2)cs1 | inconclusive: 23.1 µM [inhibitor, single point] | – |

Three structures from above, arranged by formula weight, rising:

| SMILES | Potency | activity change, negative = inhibition |
| --- | --- | --- |
| O=S(=O)(NCc1ccc2c(c1)OCO2)c1cccc2cccnc12 | inconclusive: 35.5 µM [activator, single point] | – |
| CCOC(=O)Cn1c(=O)oc2cc(S(=O)(=O)NCc3ccc(F)cc3)ccc21 | – | inactive: 4.34% [at 46.1 µM] |
| Cc1ccccc1NS(=O)(=O)c1ccc(C(=O)NCC(C)(C)N2CCOCC2)cc1 | – | inactive: -15% [at 46.1 µM] |

Next records follow.

| SMILES | Potency | activity change, negative = inhibition |
| --- | --- | --- |
| O=C(CCC(=O)N1CCN(S(=O)(=O)c2ccc(Cl)cc2)CC1)NC1CCCc2ccccc21 (centres undefined) | inconclusive: 1.41 µM [activator, partial curve, poor fit] | – |
| COC(=O)C1CCCN1S(=O)(=O)c1ccccc1NC(=O)c1cc(OC)c(OC)c(OC)c1 (centres undefined) | inconclusive: 6.31 µM [activator, partial curve] | – |
| COCCNc1nc(C(C)(C)C)nc2c1nnn2Cc1ccccc1Cl | inconclusive: 1.46 µM [activator, partial curve, poor fit] | – |
| Cc1nn(C)c(C)c1/C=C(/C(=O)C(C)(C)C)n1cncn1 | inconclusive: 20 µM [inhibitor, partial curve, poor fit] | – |
| CC1CCC(NC(=O)c2cccc(S(=O)(=O)NCc3ccccc3)c2)CC1 (centres undefined) | inconclusive: 10 µM [inhibitor, partial curve, poor fit] | – |
| CCc1ccc(OCC2c3cc(OC)c(OC)cc3CCN2C(=S)NC)cc1 (centres undefined) | inconclusive: 11.2 µM [inhibitor, partial curve, poor fit] | – |
| CCN(Cc1ccc(OC)cc1)c1ccc(-c2nc(-c3ccncc3)no2)cc1[N+](=O)[O-] | – | inactive: 2.32% [at 46.1 µM] |
| CCC(=O)N1CCc2cc(S(=O)(=O)CCC(=O)N3CCN(c4cccc(C)c4)C(C)C3)ccc21 (centres undefined) | – | inactive: -27.9% [at 46.1 µM] |
| CC(OC(=O)c1ccc2ncsc2c1)C(=O)NC1CCCCC1C (centres undefined) | inconclusive: 5.62 µM [inhibitor, single point] | – |
| Cc1ccc(C(=O)Nc2ccc(N3CCCC3)cc2)c(C)c1 | inconclusive: 8.91 µM [activator, partial curve, poor fit] | – |
| Cc1cc(Cl)ccc1OCC(=O)NC(=S)Nc1ccccc1N1CCOCC1 | inconclusive: 35.5 µM [inhibitor, single point] | – |
| O=C(Nc1ccc(-n2ccc(C(F)(F)F)n2)cc1)c1cccs1 | inconclusive: 1.12 µM [activator, full curve, poor fit] | – |
| O=C(NCc1ccccc1)c1ccc(CN2CCOCC2)cc1 | – | inactive: 0.419% |
| O=c1c2ccccc2nc(-c2ccc(Cl)cc2Cl)n1-c1nccs1 | inconclusive: 35.5 µM [inhibitor, single point] | – |
| O=C(CCc1ccccc1)NCc1ccc(F)cc1 | – | inactive: 1.38% [at 46.1 µM] |
| CCc1ccc(-n2nc3ccc(NC(=O)c4cc5ccccc5o4)cc3n2)cc1 | – | inactive: 4.46% [at 46.1 µM] |
| CCCN1CCc2cccc3c2[C@H]1Cc1ccc(O)c(O)c1-3 | inconclusive: 3.66 µM [inhibitor, single point] | – |
| Cc1ccc(CNC(=O)c2cn(C)c3ccc(S(=O)(=O)N(C)C4CCCCC4)cc3c2=O)cc1 | inconclusive: 10 µM [activator, partial curve] | – |
| Cc1ccc(CNC(=O)c2nc(SCc3cccc(C)c3)ncc2Cl)cc1 | – | inactive: -3.86% [at 46.1 µM] |
| Cc1cccc(S(=O)C(c2ccccc2)c2ccccc2)c1 (centres undefined) | – | inactive: -28.7% |
| CCCC(=O)Nc1ccc(NC(=O)Cc2ccccc2)cn1 | – | inactive: -0.628% |
| Cc1cccc(N(CC(=O)NC(C)c2ccccc2)S(=O)(=O)c2ccccc2)c1C (centres undefined) | inconclusive: 11.2 µM [inhibitor, single point] | – |
